The test has as its target Toll-7^ecto (ectodomain of Drosophila Toll-7), V5-tagged (Drosophila melanogaster) (UniProt Q7KIN0). Description: co-IP.

Amino acid sequences for entries named in this document (tags omitted). Residues count along the entry.
UniProt Q7KIN0, residues 17-1049: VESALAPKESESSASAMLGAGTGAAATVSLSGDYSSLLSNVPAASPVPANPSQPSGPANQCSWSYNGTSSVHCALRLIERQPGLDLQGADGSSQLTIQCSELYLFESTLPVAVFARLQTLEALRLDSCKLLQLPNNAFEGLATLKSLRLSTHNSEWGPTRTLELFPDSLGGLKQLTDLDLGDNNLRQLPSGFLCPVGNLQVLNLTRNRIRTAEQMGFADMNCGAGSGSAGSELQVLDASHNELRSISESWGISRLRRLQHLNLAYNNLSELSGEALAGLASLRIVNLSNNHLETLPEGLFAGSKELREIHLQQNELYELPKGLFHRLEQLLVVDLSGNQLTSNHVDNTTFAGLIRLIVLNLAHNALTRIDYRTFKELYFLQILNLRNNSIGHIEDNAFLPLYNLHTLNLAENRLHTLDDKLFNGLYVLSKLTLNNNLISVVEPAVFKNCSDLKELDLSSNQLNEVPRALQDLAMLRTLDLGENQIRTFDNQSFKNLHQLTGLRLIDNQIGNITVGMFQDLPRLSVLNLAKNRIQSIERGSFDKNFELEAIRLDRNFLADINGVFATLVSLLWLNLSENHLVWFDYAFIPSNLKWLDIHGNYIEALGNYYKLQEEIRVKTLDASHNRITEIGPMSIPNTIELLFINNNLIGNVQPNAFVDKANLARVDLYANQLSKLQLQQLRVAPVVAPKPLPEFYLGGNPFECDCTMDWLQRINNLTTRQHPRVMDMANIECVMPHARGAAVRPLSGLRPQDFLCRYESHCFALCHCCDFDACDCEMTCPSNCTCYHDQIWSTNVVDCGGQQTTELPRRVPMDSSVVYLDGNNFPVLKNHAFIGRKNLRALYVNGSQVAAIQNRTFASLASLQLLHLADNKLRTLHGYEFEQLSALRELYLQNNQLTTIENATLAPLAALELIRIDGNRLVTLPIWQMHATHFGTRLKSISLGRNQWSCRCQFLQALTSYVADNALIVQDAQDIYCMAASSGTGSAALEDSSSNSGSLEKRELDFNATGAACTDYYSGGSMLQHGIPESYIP
UniProt P03522, residues 17-511: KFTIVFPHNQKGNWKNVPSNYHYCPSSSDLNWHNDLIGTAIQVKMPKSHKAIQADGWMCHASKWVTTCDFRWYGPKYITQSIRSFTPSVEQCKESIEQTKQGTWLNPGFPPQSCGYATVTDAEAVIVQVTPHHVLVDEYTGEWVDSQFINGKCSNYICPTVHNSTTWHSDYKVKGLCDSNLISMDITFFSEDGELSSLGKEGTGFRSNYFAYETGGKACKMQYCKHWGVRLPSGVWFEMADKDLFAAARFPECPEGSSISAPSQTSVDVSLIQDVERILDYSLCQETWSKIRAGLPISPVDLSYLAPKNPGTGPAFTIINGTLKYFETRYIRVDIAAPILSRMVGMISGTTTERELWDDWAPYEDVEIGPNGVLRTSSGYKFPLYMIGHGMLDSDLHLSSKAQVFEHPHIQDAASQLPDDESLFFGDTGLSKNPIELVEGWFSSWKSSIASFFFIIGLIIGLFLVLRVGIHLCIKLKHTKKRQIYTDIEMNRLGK

Here are results for 1 substance from publication doi:10.1101/420679.

No constants are given. Whether binding was seen depends on the method and setting. In cells and extracts the contact can be indirect. Some entries that bind do so weakly or less than the wild type.

On to “VSV glycoprotein (VSV-G), on VSV-GFP virions (from UniProt P03522 17-511)”, for which the binding result is reported as “binds”.
